AC50 data for 40 compounds are collected here from PubChem BioAssay AID493014 (National Center for Advancing Translational Sciences (NCATS), 2011).

The list shows a part of the results. The main result of the screen is listed elsewhere. These columns were measured beside it and carry no call. Most of these compounds were active or inconclusive in the main read-out, so they are no random draw. Potencies come from curve fits of mixed quality, noted in brackets.

This experiment in a line: qHTS Assay to Find Inhibitors of Chronic Active B-Cell Receptor Signaling. The conditions noted are these: ABC-DLBCL IkBa-CBG/CBR reporter, luminescence ratio (green luciferase fused to IkBa over red control in TMD8 lymphoma cells), 4 h. The essentials: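 TMD8 ABC-DLBCL cells carrying doxycycline-inducible green luciferase fused to IkappaBalpha plus unfused red luciferase were exposed to compounds (up to 46 uM) for 4 hrs at 37C. Activity came from the overlap-corrected green/red luminescence ratio.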
A general note: qHTS replaces the single test concentration by a dilution series.

The mark [1] stands for this setting: measured here: CBR red luminescence, cell number.
Where [2] appears, read: measured here: IkBa-CBG green luminescence.

For the compound `O=C(O)c1cccc(-n2c(/C=C/c3ccccc3)nc3ccccc3c2=O)c1`, the AC50 (as a rule, the concentration giving half of the maximal activity seen) under setting [1] is 2.24 µM [falling, full curve, poor fit]. Turning to `Cc1ccc(S(=O)(=O)Nc2cc3c4c(c2)CCN4C(=O)CC3)cc1`, the AC50 reads like this: under setting [1], 29.1 µM [rising, single point]; under setting [2], 18.4 µM [falling, single point]. For `Cc1ccc(S(=O)(=O)NNC(=O)c2cc3cc4ccccc4nc3s2)cc1`, under setting [1], the AC50 was 12.6 µM [falling, single point].

Regarding `Oc1[nH]c2ccc(Br)cc2c1N=NC(=S)N1CCOCC1`, the AC50 under setting [1] is 5.62 µM [rising, single point] and the AC50 under setting [2] was 0.562 µM [falling, full curve, poor fit]. For the compound `CNCCCCOc1ccccc1-c1ccccc1`, under setting [1], the AC50 is 16.4 µM [falling, single point].

Consider `CCCCCCNc1cc(C)oc(=O)c1C(C)=O`, for which the AC50 under setting [1] was 14.6 µM [rising, partial curve, poor fit]. The same measure, in the same setting: then `Cc1ccc(C(=O)Nc2ccc(O)cc2C(=O)O)cc1`, with 1.16 µM [falling, full curve]; and `CN(Cc1ccccc1Cl)C(=O)CCNC(=O)c1ccco1`, with 0.0164 µM [falling, full curve, poor fit]; and `Cc1cc(C)cc(Oc2ccccc2C=O)c1`, with 16.4 µM [rising, single point]. Consider `Cc1onc(-c2ccccc2)c1C(=O)OCC(=O)NC(C)c1ccc(Cl)cc1` (stereo not drawn), for which, under setting [1], the concentration at half-maximal activity (AC50) was 13 µM [rising, partial curve, poor fit]. On the same count and under the same terms, then `C=C(C)CN(CC)c1nc(N)c(C#N)c(CC#N)c1C#N`, with 10 µM [falling, partial curve]; and `Cc1ccc(S(=O)(=O)NCc2ccc(C(=O)N3CCc4ccccc4C3)cc2)cc1`, with 2.91 µM [rising, single point]. On the same count and under the same terms, then `O=C(NCc1ccccc1)C1=C[C@H](C2CC2)C[C@H](OCc2ccc(CO)cc2)O1`, with 2.82 µM [rising, partial curve]. Still for that read-out and setting: then `CCn1c(SCC(=O)Nc2cc(C)on2)nc2c(c1=O)SCC2`, with 12.6 µM [rising, partial curve, poor fit]. Regarding `Nc1nc(NCc2ccccc2Cl)n(-c2ccccc2)n1`, the AC50 under setting [1] was 2 µM [falling, full curve, poor fit]. The same measure, in the same setting: under `COc1ccc2c(C)cc(=O)[nH]c2c1` stands 29.1 µM [falling, single point]. With `CCN(CC)c1ccc2nc3ccccc3[n+](CC)c2c1`, the AC50 runs as follows: under setting [1], 15.8 µM [falling, single point]; under setting [2], 14.1 µM [rising, partial curve, poor fit]. For `CCOc1cc(C(=O)CCC(=O)OCC(=O)Nc2ccc(C)c(S(=O)(=O)N(C)C)c2)ccc1O`, the AC50 under setting [1] was 4.47 µM [rising, partial curve, poor fit]. Consider `CCN(CC)CCNc1nc2cc(OC)c(OC)cc2c2nc(-c3ccccc3)nn12`, for which the AC50 under setting [2] is 4.61 µM [rising, partial curve, poor fit].

With `CC(=O)N1CCCc2cc(S(=O)(=O)N3CCCC(C(=O)N4CCN(c5cccc(Cl)c5)CC4)C3)ccc21` (stereo not drawn), the half-maximal activity concentration (AC50) under setting [1] is 35.5 µM [falling, single point]. Same read-out and setting: then `COc1cc(C(=O)NC(=S)Nc2nc(-c3ccc(F)cc3)cs2)cc(OC)c1OC`, with 5.01 µM [rising, partial curve, poor fit]; and `CC1CCCCN1C(=O)C1CC(c2ccc(F)cc2)=NO1` (stereo not drawn), with 7.94 µM [rising, partial curve].

With `COc1ccc(NC(=O)CN2CCN(CC(=O)Nc3ccc(F)cc3F)CC2)cc1`, under setting [1], the AC50 is 5.01 µM [falling, partial curve]. Same read-out and setting: then `CC(C)CC(OC(=O)c1cccs1)C(=O)NCc1ccco1` (stereo not drawn), with 16.4 µM [falling, single point]; and `O=C(Nc1cccc(Cl)c1)Nc1nc(-c2ccc(Cl)cc2)cs1`, with 3.16 µM [rising, full curve, poor fit]; and `CC(SCC(=O)NC12CC3CC(CC(C3)C1)C2)C(=O)O` (stereo not drawn), with 1.03 µM [falling, partial curve, poor fit]. The same measure, in the same setting: under `O=C1NC(=Nc2cccc(O)c2)S/C1=C\c1cccc([N+](=O)[O-])c1` stands 28.2 µM [falling, single point]; under `CCOC(=O)c1cnn2cc(-c3[nH]ncc3[N+](=O)[O-])cnc12`, 0.0103 µM [rising, full curve, poor fit]. The same measure, in the same setting: then `O=C(COC(=O)Cc1c(Cl)cccc1Cl)NCc1ccco1`, with 36.6 µM [rising, partial curve, poor fit].

Regarding `Cc1ccc(C(=O)Nc2ccc(NC(=O)c3cccs3)cc2)cc1[N+](=O)[O-]`, under setting [1], the AC50 is 14.1 µM [rising, partial curve, poor fit]. On to `CCOc1cc(/C=C(\C#N)C(=O)Nc2cccc(C(=O)O)c2)cc(Br)c1OC(=O)c1ccc(OC)cc1`, for which the AC50 under setting [1] is 35.5 µM [falling, single point].

As to `Nc1c(C(=O)CSc2nnnn2-c2ccc(O)cc2)c(=O)[nH]c(=O)n1C1CC1`, the half-maximal activity concentration (AC50) under setting [1] was 9.2 µM [rising, partial curve]. Same read-out and setting: then `Cc1ccc(OCC(=O)Nc2ccccc2-c2ccccc2)cc1`, with 11.2 µM [rising, partial curve]. On the same count and under the same terms, then `NNC(=O)c1ccccc1OCc1ccccc1`, with 2.24 µM [falling, full curve, poor fit]; and `O=C(Nc1ccccc1[N+](=O)[O-])c1nc[nH]c1C(=O)NCCO`, with 0.562 µM [falling, partial curve, poor fit]; and `Cc1ccc(N/C(=C\C(=O)c2ccccc2)C(=O)O)cc1`, with 31.6 µM [falling, single point].

In the case of `O=C(COc1ccccc1)Nc1cccc2nsnc12`, under setting [1], the AC50 was 22.4 µM [falling, single point]. Regarding `CN(C)S(=O)(=O)c1cccc(NC(=O)COC(=O)c2cc3ccccc3oc2=O)c1`, under setting [1], the AC50 is 35.5 µM [falling, single point]. The same measure, in the same setting: then `CC1CCN(C(=S)c2cn(Cc3ccccc3F)c3ccccc23)CC1`, with 3.16 µM [rising, single point]; and `COc1ccccc1-n1nnnc1S(=O)(=O)Cc1ccc(Cl)cc1`, with 6.51 µM [falling, partial curve, poor fit].
